Data from PubChem BioAssay AID485298 (National Center for Advancing Translational Sciences (NCATS), 2010).
Among all 320,000 compounds or so, about 740 (0.23%) were called active. Inconclusive means that the source gave no clear call. Such entries were picked first, then a sample of the others. Calls follow the shape of the dose curve; as a rule, active = well fitted activation curve with a large enough effect; inconclusive = small, poorly fitted or top-dose-only effect; inactive = no such curve, though single readings can be large or run the other way. Potencies of inconclusive entries are doubtful fits and often do not repeat.

Assay: qHTS Assay for Small Molecule Inhibitors of Mitochondrial Division or Activators of Mitochondrial Fusion; also: nearly all actives have a fitted effect of over 45% in size
Settings: S. cerevisiae fusion-defective mutant growth rescue, CellTiterGlo 48 h; series mostly up to 46.1 µM
How it was run: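 S. cerevisiae fusion-defective temperature-sensitive mutants (e.g. fzo1-1, mgm1-5) grown 48 h at 37C in YPEG (ethanol/glycerol non-fermentable) medium with 23 nl compound per well; growth rescue read as CellTiterGlo luminescence.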
Potency is read from the fitted curve at half-maximal effect.

SMILES	Potency
COc1ccc(Cn2nnnc2C(c2ccccn2)N2CCN(c3cc(Cl)ccc3C)CC2)cc1 (stereo not given)	inconclusive: 15.8 µM [activator, partial curve]
O=C(Cn1cccc1C(=O)c1ccccc1)NCCCc1ccccc1	inactive
Cc1nc(CS(=O)(=O)c2ccc(Cl)cc2)cc(Sc2ccccc2Cl)n1	inconclusive: 28.2 µM [activator, single point]
COc1ccc(C2=NOC(Cn3nc(C(=O)NCc4ccco4)cc3-c3ccccc3)C2)cc1 (stereo not given)	inconclusive: 14.1 µM [activator, single point]
O=S(=O)(NC1CCCCC1)c1ccc(F)c2ccccc12	inconclusive: 11.2 µM [activator, partial curve]
Cc1ccc(-c2nc(CS(=O)CC(=O)NC(C)CCc3ccccc3)c(C)o2)cc1 (stereo not given)	inconclusive: 11.2 µM [activator, partial curve]
Oc1ccc(-c2nc3ccccc3s2)c(O)c1	inconclusive: 11.2 µM [activator, partial curve]
CC[C@@]1(c2ccccc2)C(=O)N(C(=O)OC)N1C(=O)OC	inactive
CC(=O)c1ccccc1OCC(O)CN1CCN(C(c2ccccc2)c2ccccc2)CC1 (stereo not given)	inconclusive: 0.562 µM [activator, full curve, poor fit]
CN(Cc1ccc(F)cc1)C(=O)c1cccc(S(=O)(=O)N2CCN(c3ccccc3)CC2)c1	inactive
CC(C)(O)c1[nH]c2ccc(C(F)(F)F)cc2c1C(C)(C)O	inactive
Cc1cc(N2CCN(C)CC2)ccc1NC(=O)c1ccc(-c2ccc(Cl)cc2)o1	inactive
O=C(CSc1cc(Cl)ccc1Cl)Nc1ccc(N2CCOCC2)cc1	inconclusive: 35.5 µM [activator, single point]
COc1ccc(C2CC(=O)N3C(=C2C#N)SCC3(O)c2ccccc2)cc1 (stereo not given)	inactive
COCc1cc(C)nc(OCC(=O)N/N=C/c2ccco2)c1C#N	inactive
COc1ccc2c(c1)CC/C2=N\OC(=O)c1cccc(C)c1	inconclusive: 7.08 µM [activator, partial curve]
NS(=O)(=O)c1ccc(NC(=S)NC(=O)C2CCCCC2)cc1	inactive
CCc1nn(C(CC)C(=O)NCc2cccc(OC)c2)c(=O)c2cc3occc3n12 (stereo not given)	inconclusive: 11.2 µM [activator, partial curve]
Cc1ccc(C)c(S(=O)(=O)N2CCN(C(=O)CSc3ccccc3F)CC2)c1	inconclusive: 5.62 µM [activator, single point]
O=C(c1ccc(Cl)c(Cl)c1)N1CCC(=O)N(C(COCc2cccc(Cl)c2)Cc2ccccc2)CC1 (stereo not given)	active: 35.5 µM

In a second layout: results already given
SMILES | Potency
Cc1nc(CS(=O)(=O)c2ccc(Cl)cc2)cc(Sc2ccccc2Cl)n1 | inconclusive: 28.2 µM [activator, single point]
COc1ccc(C2=NOC(Cn3nc(C(=O)NCc4ccco4)cc3-c3ccccc3)C2)cc1 (stereo not given) | inconclusive: 14.1 µM [activator, single point]
